Test results published in US20060189528A1.
Results are given in words; binding and its absence hold for the method and conditions named. Some results given as binding are weak or reduced against the parent protein; the word gives no strength. Values belong to the binder of their own block, whether it stands above or below them.

Sequences of proteins named here, by UniProt entry; tags and fusion partners are left off. Residues count along the entry.
UniProt P50591, residues 114-281: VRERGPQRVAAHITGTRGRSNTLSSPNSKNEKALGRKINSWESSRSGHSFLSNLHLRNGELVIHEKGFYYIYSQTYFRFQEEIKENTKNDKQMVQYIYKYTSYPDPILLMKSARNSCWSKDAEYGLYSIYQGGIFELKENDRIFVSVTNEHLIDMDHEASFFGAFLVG

Experiments:
[1] = biological target: T1, RANKL (human) (UniProt O14788); assay: ELISA, RANKL coated on the plate, purified monomeric FLAG-tagged protein from E. coli in doubling dilutions, anti-FLAG detection, A450nm
T1 sequence (looked up): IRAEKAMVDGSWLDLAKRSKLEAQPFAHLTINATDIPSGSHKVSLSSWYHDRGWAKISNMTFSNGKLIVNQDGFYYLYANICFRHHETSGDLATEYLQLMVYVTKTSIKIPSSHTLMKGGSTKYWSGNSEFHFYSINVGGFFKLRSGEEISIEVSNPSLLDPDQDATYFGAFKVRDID

[2] = biological target: TRAIL (human) (UniProt P50591); assay: ELISA, TRAIL coated on the plate, purified monomeric FLAG-tagged protein from E. coli in doubling dilutions, anti-FLAG detection, A450nm

binding [1]: binds | binding [2]: binds
B2: R122G (receptor, not shown: small tags and cut ends)
chain: ETFPPKYLHYDEETSHQLLCDKCPPGTYLKQHCTAKWKTVCAPCPDHYYTDSWHTSDECLYCSPVCKELQYVKQECNRTHNRVCECKEGRYLEIEFCLKHGSCPPGFGVVQAGTPERNTVCKRCPDGFFSNETSSKAPCRKHTNCSVFGLLLTQKGNATHDNICSGNSESTQK

binding [1]: binds
B3: WT (receptor, not shown: small tags and cut ends)
chain: ETFPPKYLHYDEETSHQLLCDKCPPGTYLKQHCTAKWKTVCAPCPDHYYTDSWHTSDECLYCSPVCKELQYVKQECNRTHNRVCECKEGRYLEIEFCLKHRSCPPGFGVVQAGTPERNTVCKRCPDGFFSNETSSKAPCRKHTNCSVFGLLLTQKGNATHDNICSGNSESTQK

binding [1]: binds
B5: I115T,K51R,S167G (receptor, not shown: small tags and cut ends)
chain: ETFPPKYLHYDEETSHQLLCDKCPPGTYLRQHCTAKWKTVCAPCPDHYYTDSWHTSDECLYCSPVCKELQYVKQECNRTHNRVCECKEGRYLETEFCLKHRSCPPGFGVVQAGTPERNTVCKRCPDGFFSNETSSKAPCRKHTNCGVFGLLLTQKGNATHDNICSGNSESTQK

The next lines start with the binder.

B1: N102D (receptor, not shown: small tags and cut ends)
chain: ETFPPKYLHYDEETSHQLLCDKCPPGTYLKQHCTAKWKTVCAPCPDHYYTDSWHTSDECLYCSPVCKELQYVKQECNRTHDRVCECKEGRYLEIEFCLKHRSCPPGFGVVQAGTPERNTVCKRCPDGFFSNETSSKAPCRKHTNCSVFGLLLTQKGNATHDNICSGNSESTQK
binding [1]: binds | binding [2]: binds

B4: I115T,F128V (receptor, not shown: small tags and cut ends)
chain: ETFPPKYLHYDEETSHQLLCDKCPPGTYLKQHCTAKWKTVCAPCPDHYYTDSWHTSDECLYCSPVCKELQYVKQECNRTHNRVCECKEGRYLETEFCLKHRSCPPGVGVVQAGTPERNTVCKRCPDGFFSNETSSKAPCRKHTNCSVFGLLLTQKGNATHDNICSGNSESTQK
binding [1]: binds

B6: I115T,K51R (receptor, not shown: small tags and cut ends)
chain: ETFPPKYLHYDEETSHQLLCDKCPPGTYLRQHCTAKWKTVCAPCPDHYYTDSWHTSDECLYCSPVCKELQYVKQECNRTHNRVCECKEGRYLETEFCLKHRSCPPGFGVVQAGTPERNTVCKRCPDGFFSNETSSKAPCRKHTNCSVFGLLLTQKGNATHDNICSGNSESTQK
binding [1]: binds
